Laboratory results as given in PubChem BioAssay AID540276 (National Center for Advancing Translational Sciences (NCATS), 2011).
Hit rate of the full screen: of about 300,000 compounds, about 5,400 (1.8%) were called active. The inconclusive results got no clear call from the source; some entries with a clear call stand among them for comparison. Calls follow the shape of the full dose curve; tested in HEK293 cells. A potency beside an inconclusive call is a rough fit, not a confirmed value.

Assay: qHTS for inhibitors of binding or entry into cells for Marburg Virus
Settings: Marburg virus pseudotyped entry inhibition, cell reporter; activity change, negative = inhibition: at 37.8 µM (top of the series) unless noted
% is scaled to controls: 0 for no effect and ±100 for the full control effect; potency is read from the fitted curve at half-maximal effect.

Row | SMILES | Potency | activity change, negative = inhibition
1 | CCN(CC)c1ccc(/C=N/NC(=O)c2ccc3nc[nH]c3c2)c(O)c1 | inconclusive: 7.08 µM [inhibitor, full curve, poor fit] | 
2 | CN(C)CCCN(Cc1ccccc1)C(=S)NCc1ccccc1 | inconclusive: 0.651 µM [inhibitor, full curve, poor fit] | 
3 | Cc1ccc(S/C(=N\S(=O)(=O)c2ccc(Cl)cc2)c2ccccc2)cc1 | inconclusive: 20.6 µM [inhibitor, partial curve, poor fit] | 
4 | Cn1nnnc1SCCCNCc1cccc(OCc2ccccc2Cl)c1 | inconclusive: 6.31 µM [inhibitor, partial curve] | 
5 | COc1ccccc1C(=O)NC(CCSC)C(=O)NCc1ccccn1 (stereo unspecified) | inconclusive: 6.31 µM [inhibitor, single point] | 
6 | CCC(=O)Nc1ccc(NC(=S)NC(=O)c2cc3ccccc3o2)cc1 |  | inactive: 10.7%
7 | CCOC(=O)c1cnc(SCc2ccccc2)nc1N | inconclusive: 7.3 µM [inhibitor, partial curve, poor fit] | 
8 | COc1ccc(-c2csc(N3CCN(c4cc(C)nc5ccccc45)CC3)n2)cc1OC | inconclusive: 4.47 µM [inhibitor, full curve, poor fit] | 
9 | CCOc1ccc(CN2CCN(Cc3cccn3-c3ncccn3)CC2CCO)cc1 (stereo unspecified) | inconclusive: 35.5 µM [inhibitor, single point] | 
10 | CCn1nnnc1SCC(=O)c1ccc2c(c1)OCCO2 |  | inactive: 0.364%
11 | Fc1ccccc1/C=C1\CCCC2=C1NC(=S)NC2c1ccccc1F (stereo unspecified) | inconclusive: 10 µM [inhibitor, partial curve, poor fit] | 
12 | Cc1ccccc1CSCC(=O)NCc1ccco1 | inconclusive: 3.98 µM [activator, full curve, poor fit] | 
13 | COc1ccc(COc2cc(-c3cccc(OC)c3)nc3ccc(NC(=O)C(C)C)cc23)cc1 |  | inactive: -21.8%
14 | CC1CC(C)CN(CCOc2cccc3ccccc23)C1 (stereo unspecified) | inconclusive: 1.78 µM [inhibitor, partial curve, poor fit] | 
15 | O=C(NCCC1=CCCCC1)c1ccc(F)cc1 | inconclusive: 14.1 µM [inhibitor, partial curve, poor fit] | 
16 | N#C/C(=C/c1ccc(N2CCOCC2)o1)c1ccc(Cl)cc1 | inconclusive: 2.59 µM [activator, partial curve, poor fit] | 
17 | Cc1ccc(S(C)(=O)=NS(=O)(=O)c2cccc3nsnc23)cc1 (stereo unspecified) |  | inactive: -0.545% [at 46.1 µM]
18 | CC(C)OCCCNC(=O)c1ccc2c(c1)S(=O)(=O)c1ccccc1C2=O |  | inactive: 2.43%
19 | CC1=C(c2ccc(C)c(C)c2)S(=O)(=O)N=C1N1CCC(C(=O)NC(C)Cc2ccco2)CC1 (stereo unspecified) |  | inactive: 4.19% [at 46.1 µM]
20 | COc1ccccc1NC(=O)C1CC(=O)OC1c1ccccc1 (stereo unspecified) | inconclusive: 35.5 µM [activator, single point] | 
21 | CCCCNC(=O)Nc1nnc(-c2ccc(OCC)cc2)o1 |  | inactive: -11.1%
22 | CC(NC(=O)CCC(=O)Nc1ccccc1O)c1ccccc1 (stereo unspecified) |  | inactive: -4.5% [at 46.1 µM]
23 | CCOC(=O)C1=C(c2ccccc2)NC(SCC(=O)Nc2ccccc2C)=C(C#N)[C@@H]1c1ccco1 | active: 23.1 µM | 
24 | CC(=O)Nc1cccc(C(=O)N/N=C/c2cccnc2)c1 | inconclusive: 0.562 µM [activator, full curve, poor fit] | 

Row | SMILES | Potency | activity change, negative = inhibition
25 | c1ccc(CN2CCN(CCCNc3ccc4nnc(-c5ccccc5)n4n3)CC2)cc1 | inconclusive: 20.6 µM [inhibitor, partial curve, poor fit] | 
26 | CCCCCC1CC(CC(=O)NC(=S)Nc2ccc([N+](=O)[O-])cc2)C(=O)O1 (stereo unspecified) |  | inactive: 28.3%
27 | Cn1c(=O)n(C)c2cc(N3CCCCC3)c(NC(=O)c3ccc(C(C)(C)C)cc3)cc21 |  | inactive: 2.83% [at 46.1 µM]
28 | COc1ccc(COC(=O)CCS(=O)(=O)c2ccc(C)cc2)cc1F | inconclusive: 0.355 µM [activator, partial curve, poor fit] | 
29 | COc1cc(CNCCN2CCOCC2)ccc1OCc1cccc(Cl)c1 | inconclusive: 10 µM [inhibitor, partial curve] | 
30 | Cc1sc2ncnc(NCc3ccco3)c2c1C |  | inactive: -26.6%
31 | CCOC(=O)c1c(NC(=O)CNCCO)sc(C)c1C |  | inactive: 23.2%
32 | COCCOC(=O)C1=C(C)NC(=O)NC1c1ccc(-c2cc(Cl)ccc2Cl)o1 (stereo unspecified) | inconclusive: 17.8 µM [inhibitor, partial curve, poor fit] | 
33 | Cc1ccc(-c2ccccc2NC(=O)[C@H]2[C@H](C(=O)O)[C@@H]3C=C[C@H]2C3)o1 | inconclusive: 25.1 µM [activator, partial curve, poor fit] | 
34 | C/C(=N/NS(=O)(=O)c1ccc(Br)cc1)c1ccc(C)o1 | inconclusive: 0.501 µM [activator, full curve] | 
35 | Cc1nnc2sc(-c3ccc(-c4ccc(Cl)c(C(F)(F)F)c4)o3)nn12 | inconclusive: 17.8 µM [inhibitor, partial curve, poor fit] | 
36 | Cc1ccccc1NC(=O)c1cc(-c2ccco2)nc2ccccc12 | inconclusive: 11.2 µM [inhibitor, partial curve, poor fit] | 
37 | O=[N+]([O-])/C(C(Cl)=C(Cl)Cl)=C1\Nc2ccccc2O1 |  | inactive: -0.0335%
38 | O=C1NC2(CCCCCC2)C(=O)N1Cc1ccc(Cl)cc1Cl | inconclusive: 35.5 µM [inhibitor, single point] | 
39 | Cc1nc(/C=C/c2ccccc2)[nH]c(=O)c1-c1ccccc1 | inconclusive: 35.5 µM [inhibitor, single point] | 
40 | COc1cc(C2NC(=S)NC3=C2CCc2ccccc23)cc(OC)c1OC (stereo unspecified) |  | inactive: -1.61%
41 | Cc1ccc(S(=O)(=O)/N=C(\N)Nc2nc(C)c3ccc(C)cc3n2)cc1 | inconclusive: 20.6 µM [inhibitor, single point] | 
42 | O=C(c1ccc(N2CC3CC(C2)c2cccc(=O)n2C3)c([N+](=O)[O-])c1)N1CCCC1 (stereo unspecified) | inconclusive: 0.891 µM [inhibitor, single point] | 
43 | COc1cc2c(cc1OC)C1=C(C#N)CCC(=NC(=O)c3ccc(Cl)cc3)N1CC2 |  | inactive: 1.73%
44 | Cc1cc(C)cc(NC(=O)N2CCCN(Cc3c(F)cccc3Cl)CC2)c1 | inconclusive: 8.91 µM [inhibitor, partial curve, poor fit] | 
45 | COc1ccccc1C(=O)NNC(=O)c1ccc(Br)o1 |  | inactive: 14.1%
46 | COc1cc(OC)cc(C(=O)Nc2nc(CC(=O)NCc3ccc(F)cc3)cs2)c1 | inconclusive: 20 µM [inhibitor, single point] | 
47 | CCN1C=CC(=C2C(=O)c3ccccc3C2=O)C=C1 | active: 1.83 µM | 
48 | COCCn1c(-c2ccccc2)cnc1SCC(=O)Nc1cccc2ccccc12 | inconclusive: 29.1 µM [inhibitor, single point] | 

Among those listed so far, 3 contain a nitro group on carbon.
Row | SMILES | Potency | activity change, negative = inhibition
26 | CCCCCC1CC(CC(=O)NC(=S)Nc2ccc([N+](=O)[O-])cc2)C(=O)O1 (stereo unspecified) |  | inactive: 28.3%
37 | O=[N+]([O-])/C(C(Cl)=C(Cl)Cl)=C1\Nc2ccccc2O1 |  | inactive: -0.0335%
42 | O=C(c1ccc(N2CC3CC(C2)c2cccc(=O)n2C3)c([N+](=O)[O-])c1)N1CCCC1 (stereo unspecified) | inconclusive: 0.891 µM [inhibitor, single point] | 

The list goes on.

Row | SMILES | Potency | activity change, negative = inhibition
49 | O=C(O)Cc1csc(Nc2cccc(Cl)c2)n1 | inconclusive: 0.316 µM [activator, partial curve, poor fit] | 
50 | CC(C(N)=O)N1C(=O)NC2(CCCc3ccccc32)C1=O (stereo unspecified) | inconclusive: 6.31 µM [inhibitor, partial curve, poor fit] | 
51 | COc1ccc(C2CC(c3ccc4ccccc4c3)=NN2C(=O)CN2C(=O)CCC2=O)cc1 (stereo unspecified) | inconclusive: 35.5 µM [inhibitor, single point] | 
52 | ClCc1csc(-c2ccccc2Cl)n1 |  | inactive: 7.22% [at 46.1 µM]
53 | CCc1ccc(OCC(=O)NC(NC(=S)Nc2ccccc2C)C(Cl)(Cl)Cl)cc1 (stereo unspecified) | inconclusive: 25.1 µM [inhibitor, single point] | 
54 | CCOC(=O)c1ccccc1NC(=O)COC | inconclusive: 4.61 µM [activator, single point] | 
55 | COc1ccc(OC)c(C2NC(=O)NC(C)=C2C(=O)Nc2ccc(F)cc2)c1 (stereo unspecified) |  | inactive: 6.74% [at 46.1 µM]
56 | CCC(C)c1ccc(C(C)NC(=S)NC2CCCCC2)cc1 (stereo unspecified) | inconclusive: 17.8 µM [inhibitor, single point] | 
57 | CC(=O)Nc1ccc(NC(=O)C(Cc2ccccc2)NC(=O)C2CCC(C)CC2)cc1 (stereo unspecified) |  | inactive: 0.771%
58 | CC(=O)c1ccc(-c2nnc(CCC(=O)N(C)Cc3cccc4cnccc34)o2)s1 |  | inactive: -5.01% [at 46.1 µM]
59 | Cc1ccc(-c2ccc(/C=N/NC(=S)Nc3ccccc3)o2)cc1[N+](=O)[O-] | inconclusive: 8.2 µM [inhibitor, partial curve, poor fit] | 
60 | O=C(Nc1ccccc1O)c1csc2c1CCCC2 |  | inactive: 7.28%
61 | C=CCNC(=S)Nc1nc2c(cc1C(=O)OCC)CCCC2 | inconclusive: 14.6 µM [activator, partial curve, poor fit] | 
62 | O=C(CCCn1c(=S)[nH]c2ccc(Br)cc2c1=O)N1CCN(c2ccccn2)CC1 | inconclusive: 8.2 µM [inhibitor, partial curve, poor fit] | 
63 | COC(=O)C1C(O)=C(C(C)=N)C(=O)CC1(C)C (stereo unspecified) |  | inactive: 15% [at 46.1 µM]
64 | Fc1ccccc1Cc1noc(CN2CCC(OCc3cccnc3)CC2)n1 |  | inactive: 0.352% [at 46.1 µM]
65 | COC(=O)c1c(C)nn(-c2ccc(F)cc2)c1-n1cccc1 |  | inactive: 5.59% [at 46.1 µM]
66 | CCN(CC)c1nc(OCCNC(=O)Nc2ccccc2)nc(N(CC)CC)n1 | inconclusive: 0.282 µM [inhibitor, partial curve, poor fit] | 
67 | O=S1(=O)N[C@H](Cc2ccccc2)COc2cc(NCCO)ccc21 | inconclusive: 0.28 µM [activator, full curve, poor fit] | 
68 | Clc1cccc(Cl)c1Cn1cnc2c(NCc3ccco3)ncnc21 | inconclusive: 16.4 µM [inhibitor, single point] | 
69 | COC(=O)c1ccccc1CON1C(=O)C(C)(C)N(OCc2ccccc2C(=O)OC)C(=O)C1(C)C |  | inactive: -21.9%
70 | Cc1ccc(C2SCCN2C(=O)c2ccc([N+](=O)[O-])cc2)cc1 (stereo unspecified) |  | inactive: -2.68%
71 | O=[N+]([O-])c1ccc(O)c(-c2nn[nH]n2)c1 | inconclusive: 14.1 µM [activator, single point] | 
